# Measurements published in PubChem BioAssay AID1347076 (National Center for Advancing Translational Sciences (NCATS), 2019).
# About 13,000 (3.2%) of roughly 400,000 compounds were called active. The shares of active, inactive and inconclusive entries below differ from those in the screen. The call rests on the fitted dose curve; in most records, active means well fitted cell-killing curve with a large enough effect; inconclusive means small, poorly fitted or top-dose-only effect, or effect the other way; inactive means flat fitted curve, though single readings scatter. Where the call is inconclusive, the potency comes from a doubtful curve fit.
# Test: qHTS assay for MDR1-selective chemotherapeutics: Primary screen using the drug-selected MDR subline cells KB-V1; further: nearly all actives have a fitted effect of over 60% in size
# Settings: KB-V1 MDR cells viability, CellTiter-Glo, 72 h; activity change, negative = cytotoxicity: at 46.1 µM (top of the series)
# In short: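 Cytotoxicity toward P-gp-expressing KB-V1 cells was determined as loss of CellTiter-Glo luminescence after 72 h at 37 degrees C. Compounds were tested in quantitative HTS format across a concentration range, with curves fitted to normalized data.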
# On the % scale 0 is the no-effect control and ±100 the full control effect; potency means the concentration at half of the fitted maximal effect.
SMILES,Potency,"activity change, negative = cytotoxicity"
COc1ccc(Br)c(Cn2c(C)c(C(=O)NCc3cccc([N+](=O)[O-])c3)sc2=O)c1,"inconclusive: 9.2 µM [cytotoxic, partial curve]",–
CC(C)Cn1c(SCc2nnc(-c3cccs3)o2)nc(O)cc1=O,–,inactive: 14.7%
Cc1cc([N+](=O)[O-])nn1CCCC(=O)NCc1ccccc1,"inconclusive: 29.1 µM [cytotoxic, single point]",–
CC(=O)C1=CCC(c2ccc(Cl)cc2)N(S(=O)(=O)c2ccc(C)cc2)C1 (configuration not stated),"inconclusive: 29.1 µM [cytotoxic, single point]",–
COc1ccc(Sc2nc3ccccc3n3c(C(F)(F)F)nnc23)cc1,–,inactive: -26.3%
O=C(Cc1ccc(Br)cc1)NC1CCN(Cc2ccccc2)CC1,active: 18.4 µM,–
O=C(NC(=S)Nc1ccc(O)cc1)c1ccccc1Cl,–,inactive: -0.683%
CC(C)(C)C(=O)NC(Nc1cccc2cccnc12)C(Cl)(Cl)Cl (configuration not stated),"inconclusive: 18.4 µM [cytotoxic, single point]",–
CC(=O)Nc1cccc(-c2cc(NC(C)=O)c3ncc(-c4ccccc4)n3c2)c1,"inconclusive: 25.9 µM [cytotoxic, single point]",–
Fc1ccc(Cc2cn3cc(-c4ccc(F)cc4)nc3s2)cc1,–,inactive: 15.7%
O=C(Nc1cc(Sc2ccccn2)cc([N+](=O)[O-])c1)c1cccc(Cl)c1,"inconclusive: 20.6 µM [cytotoxic, single point]",–
O=C1CN(C(=O)/C=C/c2cc(Br)ccc2F)CCN1,–,inactive: 3.72%
CC1=Nc2cc(C(=O)NCc3ccco3)ccc2Sc2ccc(C)cc21,active: 0.58 µM,–
CC(=O)NCCc1nc2ccccc2n1CCOc1ccccc1C,"inconclusive: 4.11 µM [cytotoxic, full curve, poor fit]",–
COc1cc(/C=C2\CC/C(=C\c3cc(OC)c(OC)c(OC)c3)C2=O)cc(OC)c1OC,–,inactive: -28.5%
O=C(NCC1CCN(Cc2ccccc2F)CC1)Nc1cccc(Br)c1,"inconclusive: 25.9 µM [cytotoxic, partial curve, poor fit]",–
Cc1csc(NC(=O)c2cccc(S(=O)(=O)N3CCCCC3)c2)n1,–,inactive: -12.4%
CC(=O)N1CCc2c(sc3c2c(=O)n(-c2ccccc2)c(=O)n3Cc2cccc(C(F)(F)F)c2)C1,–,inactive: -27.5%
CCc1nc(N2CCN(C(=O)c3ccco3)CC2)c(C#N)c2c1COC(C)(C)C2,"inconclusive: 29.1 µM [cytotoxic, single point]",–
COc1ccc(N2CCN(C(=O)CCc3c(C)nc4cc(-c5cccc(F)c5)nn4c3C)CC2)cc1,–,inactive: 4.12%
Cc1cccc(Nc2nc(NCc3ccco3)c3ccccc3n2)c1,active: 14.6 µM,–
Cc1ccc(OCC(=O)Nc2ccc(N3CCN(C(=O)c4ccco4)CC3)cc2)cc1C,"inconclusive: 18.4 µM [cytotoxic, single point]",–
O=C(/C=C/c1ccc(F)cc1)NC(=S)NNC(=O)c1cnccn1,"inconclusive: 0.461 µM [cytotoxic, full curve, poor fit]",–
O=C(O)Cc1ccc2sc(-c3ccccc3)nc2c1,"inconclusive: 20.6 µM [cytotoxic, partial curve]",–

# One compound at a time (already shown). Values in the order: Potency	activity change, negative = cytotoxicity
# `COc1cc(/C=C2\CC/C(=C\c3cc(OC)c(OC)c(OC)c3)C2=O)cc(OC)c1OC` as listed: –	inactive: -28.5%
# `O=C(Cc1ccc(Br)cc1)NC1CCN(Cc2ccccc2)CC1` as listed: active: 18.4 µM	–
# `CC1=Nc2cc(C(=O)NCc3ccco3)ccc2Sc2ccc(C)cc21` as listed: active: 0.58 µM	–
# `O=C(NC(=S)Nc1ccc(O)cc1)c1ccccc1Cl` as listed: –	inactive: -0.683%

# (listing goes on)

SMILES,Potency,"activity change, negative = cytotoxicity"
COc1cc(C2=Nc3ccc(Br)cc3C(c3ccccc3)N2CC(=O)NN)cc(OC)c1OC (configuration not stated),"inconclusive: 0.58 µM [rising, full curve, poor fit]",–
O=C(CCNC(=O)c1ccccc1)OCC(=O)c1ccccc1,–,inactive: 0%
CC(=O)Nc1ccc(-c2cn3cc(C)ccc3n2)cc1,active: 16.4 µM,–
O=C(O)c1cc(-c2ccccc2)n(-c2ccc(Cl)cc2Cl)n1,"inconclusive: 23.1 µM [rising, single point]",–
Cc1ccc2cccc(OCCOCCOc3ccccc3Br)c2n1,"inconclusive: 23.1 µM [cytotoxic, single point]",–
CN(C(=O)c1ccc(S(=O)(=O)c2cccc(Cl)c2)c([N+](=O)[O-])c1)C1CCCCC1,"inconclusive: 18.4 µM [cytotoxic, single point]",–
CCOC(=O)c1cnc2c(ccc3ccccc32)c1Nc1ccc(OC)cc1OC,"inconclusive: 32.6 µM [cytotoxic, single point]",–
Cc1sc2ncnc(Sc3nnnn3-c3ccccc3)c2c1C,"inconclusive: 23.1 µM [cytotoxic, single point]",–
COCCCNC(=S)N/N=C/c1ccc(N(C)C)cc1,–,inactive: -15.6%
CCOC(=O)N1CCC(N2CCN(S(=O)(=O)c3ccc(Cl)cc3)CC2)CC1,"inconclusive: 18.4 µM [cytotoxic, single point]",–
CC(C)c1ccc(Nc2nc(Cl)nc(NCCO)n2)cc1,–,inactive: -0.122%
CC(C)(C)c1ccc(O)c(/C=N\O)c1,–,inactive: 8.35%
Cc1ccc(C(=O)COC(=O)CCc2ccc(S(=O)(=O)N3CCCCC3)cc2)cc1,–,inactive: 5.59%
CC(C)C[C@H]1CN(CCCC[C@@H]2CNC(=O)C(=O)N2CC2CCCCC2)C(=O)C(=O)N1CCc1ccccc1,–,inactive: 5.58%
O=C(NNC(=O)c1cccs1)c1cccc(F)c1,"inconclusive: 29.1 µM [rising, single point]",–
COc1ccc(C(=O)c2c(N)c(-c3nc(-c4ccccc4)cs3)c3ccccn23)cc1,–,inactive: 1.55%
Cc1cc(NC(=O)CSc2nc3ccccc3s2)no1,"inconclusive: 29.1 µM [rising, single point]",–
Cc1nc(-c2ccccc2)sc1-c1nc(-c2ccncc2)ncc1S(=O)(=O)c1ccccc1,"inconclusive: 16.4 µM [cytotoxic, partial curve]",–
O=C(CCS(=O)(=O)c1ccccc1)Nc1ccc(-c2nc3ccccc3s2)cc1,"inconclusive: 29.1 µM [cytotoxic, single point]",–
CC12CN3CC(C)(CN(C1)C3c1ccccc1)C2O (configuration not stated),"inconclusive: 29.1 µM [rising, single point]",–
CCOC(=O)C1=C(O)C(Nc2nc3ccccc3s2)(C(F)(F)F)N=C1C (configuration not stated),"inconclusive: 23.1 µM [cytotoxic, partial curve]",–
Cc1cc(OCC(=O)Nc2cc(S(=O)(=O)N3CCOCC3)ccc2N2CCCC2)ccc1C(C)C,active: 7.31 µM,–
CCc1nn(CC(=O)NCCCN2CCN(C)CC2)c(=O)c2cc3occc3n12,"inconclusive: 29.1 µM [rising, single point]",–
CSc1ncc(C(=O)N2CCN(c3ccc(Cl)cc3)CC2)c(C)n1,–,inactive: -7.22%

SMILES,Potency,"activity change, negative = cytotoxicity"
COc1cccc(C(=O)NNC(=O)C2CCCO2)c1 (configuration not stated),"inconclusive: 18.4 µM [rising, single point]",–
O=C(O)c1cc(N2C(=O)C=CC2=O)cc(N2C(=O)C=CC2=O)c1,"inconclusive: 0.731 µM [rising, partial curve]",–
COC(=O)Cc1ccc(NC(=O)c2ccc(C)c(C)c2)cc1,"inconclusive: 3.98 µM [cytotoxic, single point]",–
O=C(NCCC1=CCCCC1)C1CCC(=O)N(Cc2cccc(C(F)(F)F)c2)C1 (configuration not stated),"inconclusive: 20.6 µM [cytotoxic, single point]",–
CCOc1ccc(/C=C2\CCc3ccccc3C2=O)cc1,"inconclusive: 23.1 µM [cytotoxic, single point]",–
Cc1cc(C(=O)Nc2nc3ccc(Cl)cc3s2)nn1C,"inconclusive: 20.6 µM [cytotoxic, partial curve]",–
O=C(C[n+]1ccc2ccccc2c1)c1ccccc1,–,inactive: 30.3%
COc1ccc(-c2cc(C(=O)NCCc3ccccc3)c3c(-c4ccccc4)[nH]nc3n2)cc1,"inconclusive: 20.6 µM [cytotoxic, single point]",–
N#Cc1ccccc1NC(=O)c1cccc(COc2ccc(Cl)cc2Cl)c1,–,inactive: 0.166%
CCC(C)c1ccc(S(=O)(=O)N2CCN(C(=O)COc3ccc4c(C)cc(=O)oc4c3)CC2)cc1 (configuration not stated),–,inactive: -4.98%
CC(Oc1ccc(Br)cc1)C(=O)NCc1ccccn1 (configuration not stated),"inconclusive: 0.651 µM [rising, full curve]",–
COCCn1c(C)cc(/C=C(\C#N)C(=O)OCC(=O)Nc2ccc(S(N)(=O)=O)cc2)c1C,–,inactive: 5.74%
Fc1ccccc1CNC(=S)NC1CCCCC1,"inconclusive: 23.1 µM [rising, single point]",–
O=C(NCC(c1cccnc1)N1CCc2ccccc2C1)C(=O)Nc1cccc(Cl)c1 (configuration not stated),–,inactive: -9.84%
O=C(NCCNC1CCC(c2ccccc2)CC1)c1cccs1 (configuration not stated),"inconclusive: 5.8 µM [cytotoxic, partial curve, poor fit]",–
CCN(CC)C(=O)c1cc2c(=O)n3cccc(C)c3nc2n1C,"inconclusive: 18.4 µM [cytotoxic, single point]",–
Cc1ccccc1/C=C\c1nc(O)c([N+](=O)[O-])c(=O)[nH]1,"inconclusive: 18.4 µM [rising, partial curve, poor fit]",–
N#Cc1ccc(CSc2nc(N)cc(N)n2)cc1,"inconclusive: 18.4 µM [rising, single point]",–
Cc1ccc(CCNS(=O)(=O)c2ccc3c(c2)CCN3C(=O)CCC(=O)O)cc1,–,inactive: 9.81%
CCN(Cc1ccncc1)C(=O)c1ccccc1NS(=O)(=O)c1ccc(Br)cc1,"inconclusive: 10.3 µM [cytotoxic, partial curve, poor fit]",–
COc1cc(/C=C2\C(=N)N3N=C(CC(=O)N4CCOCC4)SC3=NC2=O)cc(OC)c1OC,"inconclusive: 2.59 µM [rising, partial curve, poor fit]",–
Oc1ccc(C[C@@H](CN2CCCC2CN2C(=S)NC[C@@H]2Cc2ccccc2)N2C[C@H](Cc3ccccc3)N(CC3CCCCC3)C2=S)cc1 (some centres not stated),"inconclusive: 5.8 µM [cytotoxic, partial curve]",–
Cc1cc(=O)[nH]c(NN=C2CCCCC2C)n1 (configuration not stated),–,inactive: -14.2%
CCCn1c(=O)c(-c2nc3ccccc3[nH]2)c(O)c2ccccc21,"inconclusive: 5.8 µM [cytotoxic, partial curve, poor fit]",–
